# Literature values, collected in article PMC10450579, “A biophysical framework for double-drugging kinases” (Proceedings of the National Academy of Sciences of the …, 2023).
# Molecular target: Abl allosteric site
# Settings: binding to allosteric site; cited from earlier work
structure (smiles),measurement,value
Cc1ccc(NC(=O)c2ccc(CN3CCN(C)CC3)cc2)cc1Nc1nccc(-c2cccnc2)n1 [imatinib],Kd,> 10 µM
